According to the supplement of paper PMC12819154, “High-throughput peptide-centric local stability assay extends protein–ligand identification to membrane proteins, tissues and bacteria” (Nature Structural & Molecular Biology, 2025):
The other results are listed elsewhere or left out. Most entries show no effect beyond the scatter of the controls.

By UniProt entry, the sequences of proteins in these tests, tags left out. Where a name states a change or a piece, a line headed by the entry shows the natural chain unless it says otherwise.
UniProt Q16630, whole entry: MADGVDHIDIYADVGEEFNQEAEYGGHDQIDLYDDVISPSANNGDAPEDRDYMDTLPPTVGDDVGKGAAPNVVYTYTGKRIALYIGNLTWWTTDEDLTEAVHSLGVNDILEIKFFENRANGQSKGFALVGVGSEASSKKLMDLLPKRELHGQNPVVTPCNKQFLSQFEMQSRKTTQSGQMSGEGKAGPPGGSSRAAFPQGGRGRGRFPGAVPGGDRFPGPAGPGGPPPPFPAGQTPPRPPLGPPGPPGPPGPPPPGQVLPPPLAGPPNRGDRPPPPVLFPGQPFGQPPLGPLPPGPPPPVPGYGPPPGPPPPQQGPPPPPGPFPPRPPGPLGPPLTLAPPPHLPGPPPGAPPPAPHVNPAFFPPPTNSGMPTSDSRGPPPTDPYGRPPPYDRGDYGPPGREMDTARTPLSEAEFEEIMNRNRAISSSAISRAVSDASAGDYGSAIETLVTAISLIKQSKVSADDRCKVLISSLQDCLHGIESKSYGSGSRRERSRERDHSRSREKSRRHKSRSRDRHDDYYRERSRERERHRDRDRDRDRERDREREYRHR
UniProt Q15773: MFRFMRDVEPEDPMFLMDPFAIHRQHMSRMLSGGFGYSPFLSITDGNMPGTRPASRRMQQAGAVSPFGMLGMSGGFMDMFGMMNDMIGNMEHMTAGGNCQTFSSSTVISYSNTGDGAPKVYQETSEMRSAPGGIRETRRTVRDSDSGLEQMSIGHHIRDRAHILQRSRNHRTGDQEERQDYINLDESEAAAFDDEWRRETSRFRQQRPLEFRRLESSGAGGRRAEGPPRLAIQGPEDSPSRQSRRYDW
UniProt Q15738: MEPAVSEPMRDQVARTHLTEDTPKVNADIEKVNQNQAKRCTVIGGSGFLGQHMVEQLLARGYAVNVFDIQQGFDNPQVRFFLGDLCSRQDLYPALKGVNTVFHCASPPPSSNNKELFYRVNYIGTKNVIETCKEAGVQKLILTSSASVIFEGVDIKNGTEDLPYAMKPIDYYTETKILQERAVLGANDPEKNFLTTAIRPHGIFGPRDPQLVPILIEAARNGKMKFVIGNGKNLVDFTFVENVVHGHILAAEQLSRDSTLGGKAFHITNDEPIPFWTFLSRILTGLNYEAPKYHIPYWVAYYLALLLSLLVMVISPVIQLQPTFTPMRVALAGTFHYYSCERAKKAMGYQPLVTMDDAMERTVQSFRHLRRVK
UniProt Q2M2Z5: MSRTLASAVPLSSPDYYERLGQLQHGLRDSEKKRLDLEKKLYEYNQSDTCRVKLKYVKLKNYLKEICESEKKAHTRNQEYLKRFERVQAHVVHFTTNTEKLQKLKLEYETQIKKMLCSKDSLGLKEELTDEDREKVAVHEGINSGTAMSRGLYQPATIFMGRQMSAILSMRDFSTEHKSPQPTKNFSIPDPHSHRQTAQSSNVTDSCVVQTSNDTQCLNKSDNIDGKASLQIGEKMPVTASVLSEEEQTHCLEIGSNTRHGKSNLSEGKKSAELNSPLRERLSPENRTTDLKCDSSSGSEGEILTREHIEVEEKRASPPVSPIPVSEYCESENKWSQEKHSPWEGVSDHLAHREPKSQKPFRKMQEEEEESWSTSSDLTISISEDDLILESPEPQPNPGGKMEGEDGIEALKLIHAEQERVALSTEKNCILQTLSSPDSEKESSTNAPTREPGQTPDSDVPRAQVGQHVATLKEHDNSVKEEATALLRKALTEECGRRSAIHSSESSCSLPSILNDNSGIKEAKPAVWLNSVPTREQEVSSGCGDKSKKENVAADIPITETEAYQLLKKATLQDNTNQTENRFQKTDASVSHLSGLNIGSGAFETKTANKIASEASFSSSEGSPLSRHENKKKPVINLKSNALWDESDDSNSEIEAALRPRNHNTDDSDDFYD
UniProt Q15650: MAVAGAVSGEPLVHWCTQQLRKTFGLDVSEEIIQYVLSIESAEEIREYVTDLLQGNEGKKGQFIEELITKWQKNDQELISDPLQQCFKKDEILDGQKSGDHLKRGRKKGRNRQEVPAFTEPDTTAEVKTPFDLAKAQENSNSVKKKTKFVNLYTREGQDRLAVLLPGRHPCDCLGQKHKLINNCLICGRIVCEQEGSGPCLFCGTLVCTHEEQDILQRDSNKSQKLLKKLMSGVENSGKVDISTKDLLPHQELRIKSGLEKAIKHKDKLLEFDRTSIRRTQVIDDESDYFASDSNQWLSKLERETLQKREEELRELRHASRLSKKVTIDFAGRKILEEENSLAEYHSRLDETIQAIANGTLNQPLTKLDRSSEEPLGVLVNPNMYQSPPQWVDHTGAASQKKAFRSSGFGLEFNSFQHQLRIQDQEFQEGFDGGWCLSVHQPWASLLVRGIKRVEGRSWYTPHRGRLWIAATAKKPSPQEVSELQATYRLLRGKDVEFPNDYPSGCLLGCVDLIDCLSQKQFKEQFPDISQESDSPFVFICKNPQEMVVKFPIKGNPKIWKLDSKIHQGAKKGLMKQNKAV
UniProt Q1L5Z9: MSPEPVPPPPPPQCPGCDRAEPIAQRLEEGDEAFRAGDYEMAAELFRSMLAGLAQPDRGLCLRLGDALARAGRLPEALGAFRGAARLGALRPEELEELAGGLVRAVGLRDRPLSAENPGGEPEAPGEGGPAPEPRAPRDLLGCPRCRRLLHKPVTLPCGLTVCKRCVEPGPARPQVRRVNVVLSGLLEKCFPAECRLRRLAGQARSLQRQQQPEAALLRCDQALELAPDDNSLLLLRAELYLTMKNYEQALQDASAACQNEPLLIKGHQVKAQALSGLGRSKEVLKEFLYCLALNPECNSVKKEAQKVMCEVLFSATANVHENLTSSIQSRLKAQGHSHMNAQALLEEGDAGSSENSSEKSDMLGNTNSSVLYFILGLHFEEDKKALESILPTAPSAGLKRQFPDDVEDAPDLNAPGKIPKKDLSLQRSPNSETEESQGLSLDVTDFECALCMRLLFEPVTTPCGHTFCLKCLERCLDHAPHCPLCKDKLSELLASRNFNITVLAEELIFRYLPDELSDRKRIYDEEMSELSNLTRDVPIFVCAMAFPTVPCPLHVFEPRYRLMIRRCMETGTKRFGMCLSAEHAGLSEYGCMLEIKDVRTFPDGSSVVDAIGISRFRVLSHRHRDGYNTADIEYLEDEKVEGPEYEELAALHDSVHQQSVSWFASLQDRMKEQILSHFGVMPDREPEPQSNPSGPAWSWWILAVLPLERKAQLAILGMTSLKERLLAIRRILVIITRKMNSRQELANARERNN
UniProt Q15543, whole entry: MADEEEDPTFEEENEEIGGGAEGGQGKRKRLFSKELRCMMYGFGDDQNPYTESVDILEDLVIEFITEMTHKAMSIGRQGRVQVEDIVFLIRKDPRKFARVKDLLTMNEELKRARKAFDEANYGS
UniProt Q15907: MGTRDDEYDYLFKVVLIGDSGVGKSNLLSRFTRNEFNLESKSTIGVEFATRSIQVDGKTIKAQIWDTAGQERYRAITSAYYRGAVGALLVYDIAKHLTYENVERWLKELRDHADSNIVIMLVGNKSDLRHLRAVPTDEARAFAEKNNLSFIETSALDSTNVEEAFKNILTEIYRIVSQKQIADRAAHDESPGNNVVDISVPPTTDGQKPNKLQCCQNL
UniProt Q1ED39: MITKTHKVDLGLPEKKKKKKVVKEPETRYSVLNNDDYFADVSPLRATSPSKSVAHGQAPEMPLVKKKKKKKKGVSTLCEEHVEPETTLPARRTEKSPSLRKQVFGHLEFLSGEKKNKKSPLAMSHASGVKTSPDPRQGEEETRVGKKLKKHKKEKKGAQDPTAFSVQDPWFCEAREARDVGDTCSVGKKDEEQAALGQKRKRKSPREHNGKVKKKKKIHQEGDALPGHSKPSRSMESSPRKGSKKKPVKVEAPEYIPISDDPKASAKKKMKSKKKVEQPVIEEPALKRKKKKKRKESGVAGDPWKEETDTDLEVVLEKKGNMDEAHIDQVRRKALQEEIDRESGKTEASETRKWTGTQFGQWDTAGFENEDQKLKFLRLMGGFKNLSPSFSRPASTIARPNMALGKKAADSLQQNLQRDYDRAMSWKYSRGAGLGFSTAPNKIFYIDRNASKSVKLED
UniProt Q15390: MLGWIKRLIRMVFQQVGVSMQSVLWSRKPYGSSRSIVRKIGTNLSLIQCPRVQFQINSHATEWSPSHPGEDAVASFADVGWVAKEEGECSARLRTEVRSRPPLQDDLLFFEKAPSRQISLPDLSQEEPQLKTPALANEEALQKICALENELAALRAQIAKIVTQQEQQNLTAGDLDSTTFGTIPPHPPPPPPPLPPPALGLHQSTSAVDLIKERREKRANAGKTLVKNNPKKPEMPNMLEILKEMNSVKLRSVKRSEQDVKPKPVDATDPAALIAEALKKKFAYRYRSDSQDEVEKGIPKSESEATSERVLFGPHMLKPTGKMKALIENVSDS
UniProt Q16600: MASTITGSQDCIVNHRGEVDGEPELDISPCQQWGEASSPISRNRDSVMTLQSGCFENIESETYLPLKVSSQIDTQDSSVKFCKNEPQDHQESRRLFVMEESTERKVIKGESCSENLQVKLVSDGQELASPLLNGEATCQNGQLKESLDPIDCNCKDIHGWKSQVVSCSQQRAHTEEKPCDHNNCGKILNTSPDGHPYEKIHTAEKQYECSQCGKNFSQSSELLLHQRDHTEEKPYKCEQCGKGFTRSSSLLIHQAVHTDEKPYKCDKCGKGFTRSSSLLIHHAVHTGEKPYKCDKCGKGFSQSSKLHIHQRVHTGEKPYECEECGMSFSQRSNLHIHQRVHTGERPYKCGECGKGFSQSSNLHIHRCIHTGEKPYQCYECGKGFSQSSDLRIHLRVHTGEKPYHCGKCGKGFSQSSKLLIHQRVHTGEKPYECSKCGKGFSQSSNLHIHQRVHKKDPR
UniProt Q15185: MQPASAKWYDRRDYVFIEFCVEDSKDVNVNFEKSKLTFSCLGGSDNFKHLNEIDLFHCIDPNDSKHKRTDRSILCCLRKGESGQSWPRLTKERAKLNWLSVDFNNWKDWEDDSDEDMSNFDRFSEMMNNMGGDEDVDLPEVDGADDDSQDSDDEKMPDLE
UniProt Q15742: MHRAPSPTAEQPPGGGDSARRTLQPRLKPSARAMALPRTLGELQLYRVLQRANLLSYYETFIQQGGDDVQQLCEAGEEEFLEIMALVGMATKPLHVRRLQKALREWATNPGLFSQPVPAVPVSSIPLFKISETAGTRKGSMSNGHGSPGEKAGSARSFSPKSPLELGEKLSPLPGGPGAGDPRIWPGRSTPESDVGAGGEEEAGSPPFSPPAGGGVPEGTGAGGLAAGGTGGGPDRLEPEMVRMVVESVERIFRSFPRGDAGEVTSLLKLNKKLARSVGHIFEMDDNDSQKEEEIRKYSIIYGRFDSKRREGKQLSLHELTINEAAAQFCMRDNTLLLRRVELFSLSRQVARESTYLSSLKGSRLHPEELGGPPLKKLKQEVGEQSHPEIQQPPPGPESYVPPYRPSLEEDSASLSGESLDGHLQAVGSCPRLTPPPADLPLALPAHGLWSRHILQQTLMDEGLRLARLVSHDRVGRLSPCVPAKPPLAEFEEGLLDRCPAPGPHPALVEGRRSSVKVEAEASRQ
UniProt Q16352: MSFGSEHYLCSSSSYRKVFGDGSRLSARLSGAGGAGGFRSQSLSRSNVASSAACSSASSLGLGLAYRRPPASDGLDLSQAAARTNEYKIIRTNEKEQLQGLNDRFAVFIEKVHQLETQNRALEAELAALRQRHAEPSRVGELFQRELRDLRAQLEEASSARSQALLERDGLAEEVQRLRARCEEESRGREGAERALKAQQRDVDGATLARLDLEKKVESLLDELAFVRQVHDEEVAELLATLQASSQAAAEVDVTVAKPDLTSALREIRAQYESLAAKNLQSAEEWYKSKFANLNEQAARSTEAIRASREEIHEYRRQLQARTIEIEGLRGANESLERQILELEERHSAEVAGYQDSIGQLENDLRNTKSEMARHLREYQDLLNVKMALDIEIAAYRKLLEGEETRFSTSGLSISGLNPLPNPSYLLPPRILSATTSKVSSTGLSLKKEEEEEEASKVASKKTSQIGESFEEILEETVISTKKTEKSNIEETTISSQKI

compound: CN[C@@H]1C[C@H]2O[C@@](C)([C@@H]1OC)n1c3ccccc3c3c4c(c5c6ccccc6n2c5c31)C(=O)NC4 [staurosporine]; assay: log2 fold change of tryptic peptide abundance, ligand vs vehicle (limited proteolysis) (log2 ratio); higher = more trypsin-susceptible (destabilized); details: ligand concentration: 20 uM; sample: K562 cleared lysate; digestion: 4 min, 22 C (HT-PELSA RT4min, Orbitrap Astral)

Row | Target | log2 fold change
1 | CPSF6 (peptide sequence: RELHGQNPVVTPCNK, peptide start residue: 147) (UniProt Q16630) | -0.251
2 | MLF2 (peptide sequence: DSDSGLEQMSIGHHIR, peptide start residue: 143) (UniProt Q15773) | -0.098
3 | UniProt Q15406 (peptide sequence: ATGLHYGIISCEGCK, peptide start residue: 67) | -0.314
4 | ZRSR2 (peptide sequence: KLKEQWEEQQR, peptide start residue: 106) (UniProt Q15696) | -0.435
5 | UniProt Q3YBR2 (peptide sequence: SLLDGLASSPR, peptide start residue: 2) | 0.19
6 | NSDHL (peptide sequence: THLTEDTPKVNADIEK, peptide start residue: 16) (UniProt Q15738) | 0.24
7 | KIZ (peptide sequence: EHDNSVKEEATALLR, peptide start residue: 474) (UniProt Q2M2Z5) | 0.747
8 | TRIP4 (peptide sequence: KVTIDFAGR, peptide start residue: 325) (UniProt Q15650) | 0.215
9 | VMAC (peptide sequence: EANAHLAAVHRR, peptide start residue: 11) (UniProt Q2NL98) | 0.377
10 | LONRF2 (peptide sequence: LEEGDEAFR, peptide start residue: 27) (UniProt Q1L5Z9) | -0.158
11 | UniProt Q16659 (peptide sequence: ESEVNHYYEPK, peptide start residue: 461) | 0.507
12 | UniProt Q15695 (peptide sequence: LHEEWLLR, peptide start residue: 71) | -0.00797
13 | UniProt Q2QGD7 (peptide sequence: CPVSTCNR, peptide start residue: 453) | -0.349
14 | UniProt Q15543 (peptide sequence: VKDLLTMNEELKR, peptide start residue: 100) | 0.403
15 | RAB11B (peptide sequence: NILTEIYR, peptide start residue: 167) (UniProt Q15907) | 0.235
16 | MAPKAPK3 (peptide sequence: LTDFGFAK, peptide start residue: 205) (UniProt Q16644) | -0.638
17 | UniProt Q1ED39 (peptide sequence: QVFGHLEFLSGEKK, peptide start residue: 102) | 0.481
18 | MTFR1 (peptide sequence: KPEMPNMLEILK, peptide start residue: 232) (UniProt Q15390) | 0.349

Rewritten in markdown: part of the list above

| Row | Target | log2 fold change |
| --- | --- | --- |
| 14 | UniProt Q15543 (peptide sequence: VKDLLTMNEELKR, peptide start residue: 100) | 0.403 |
| 15 | RAB11B (peptide sequence: NILTEIYR, peptide start residue: 167) (UniProt Q15907) | 0.235 |

The list continues:

Row | Target | log2 fold change
19 | NDUFA5 (peptide sequence: ILDVLEEIPK, peptide start residue: 31) (UniProt Q16718) | 0.0723
20 | ZNF146 (peptide sequence: AFSQFSTLALHLR, peptide start residue: 248) (UniProt Q15072) | 0.331
21 | EZH2 (peptide sequence: YSQADALK, peptide start residue: 728) (UniProt Q15910) | -0.203
22 | ZNF239 (peptide sequence: VSSQIDTQDSSVKFCK, peptide start residue: 68) (UniProt Q16600) | -1.05
23 | MAPRE2 (peptide sequence: GRFQDNLDFIQWFK, peptide start residue: 142) (UniProt Q15555) | 0.332
24 | QPRT (peptide sequence: GAGWTGHVAGTR, peptide start residue: 127) (UniProt Q15274) | 0.335
25 | PTGES3 (peptide sequence: GESGQSWPR, peptide start residue: 80) (UniProt Q15185) | -0.0841
26 | EIF4H (peptide sequence: EEVVQKEQE, peptide start residue: 240) (UniProt Q15056) | -0.112
27 | UBE3C (peptide sequence: CLRDACLGIIK, peptide start residue: 548) (UniProt Q15386) | 0.182
28 | TXNRD1 (peptide sequence: MIEAVQNHIGSLNWGYR, peptide start residue: 251) (UniProt Q16881) | -0.415
29 | GON4L (peptide sequence: WTVVKTEEGR, peptide start residue: 1290) (UniProt Q3T8J9) | -1.15
30 | UniProt Q16670 (peptide sequence: AFSLTSDLIR, peptide start residue: 402) | -0.254
31 | UniProt Q3SXM0 (peptide sequence: SGEIFAIDLR, peptide start residue: 345) | 0.361
32 | NAB2 (peptide sequence: SSVKVEAEASRQ, peptide start residue: 514) (UniProt Q15742) | -0.951
33 | UniProt Q16352 (peptide sequence: EYQDLLNVK, peptide start residue: 382) | -0.0563
34 | EEA1 (peptide sequence: LAEIEEIK, peptide start residue: 1126) (UniProt Q15075) | 0.157
35 | TCEAL1 (peptide sequence: KENEEEPQSAPK, peptide start residue: 6) (UniProt Q15170) | -0.493
36 | ATP6V1F (peptide sequence: HPNFLVVEKDTTINEIEDTFR, peptide start residue: 33) (UniProt Q16864) | 0.39
